Reference: publication PMC7941988
Results are given in words; binding and its absence hold for the method and conditions named. In cells and extracts the contact can be indirect. Some entries that bind do so weakly or less than the wild type.

Amino acid sequences for entries named in this document (tags omitted). A change or cut given only in a name is not applied to a line headed by its entry.
UniProt O95342: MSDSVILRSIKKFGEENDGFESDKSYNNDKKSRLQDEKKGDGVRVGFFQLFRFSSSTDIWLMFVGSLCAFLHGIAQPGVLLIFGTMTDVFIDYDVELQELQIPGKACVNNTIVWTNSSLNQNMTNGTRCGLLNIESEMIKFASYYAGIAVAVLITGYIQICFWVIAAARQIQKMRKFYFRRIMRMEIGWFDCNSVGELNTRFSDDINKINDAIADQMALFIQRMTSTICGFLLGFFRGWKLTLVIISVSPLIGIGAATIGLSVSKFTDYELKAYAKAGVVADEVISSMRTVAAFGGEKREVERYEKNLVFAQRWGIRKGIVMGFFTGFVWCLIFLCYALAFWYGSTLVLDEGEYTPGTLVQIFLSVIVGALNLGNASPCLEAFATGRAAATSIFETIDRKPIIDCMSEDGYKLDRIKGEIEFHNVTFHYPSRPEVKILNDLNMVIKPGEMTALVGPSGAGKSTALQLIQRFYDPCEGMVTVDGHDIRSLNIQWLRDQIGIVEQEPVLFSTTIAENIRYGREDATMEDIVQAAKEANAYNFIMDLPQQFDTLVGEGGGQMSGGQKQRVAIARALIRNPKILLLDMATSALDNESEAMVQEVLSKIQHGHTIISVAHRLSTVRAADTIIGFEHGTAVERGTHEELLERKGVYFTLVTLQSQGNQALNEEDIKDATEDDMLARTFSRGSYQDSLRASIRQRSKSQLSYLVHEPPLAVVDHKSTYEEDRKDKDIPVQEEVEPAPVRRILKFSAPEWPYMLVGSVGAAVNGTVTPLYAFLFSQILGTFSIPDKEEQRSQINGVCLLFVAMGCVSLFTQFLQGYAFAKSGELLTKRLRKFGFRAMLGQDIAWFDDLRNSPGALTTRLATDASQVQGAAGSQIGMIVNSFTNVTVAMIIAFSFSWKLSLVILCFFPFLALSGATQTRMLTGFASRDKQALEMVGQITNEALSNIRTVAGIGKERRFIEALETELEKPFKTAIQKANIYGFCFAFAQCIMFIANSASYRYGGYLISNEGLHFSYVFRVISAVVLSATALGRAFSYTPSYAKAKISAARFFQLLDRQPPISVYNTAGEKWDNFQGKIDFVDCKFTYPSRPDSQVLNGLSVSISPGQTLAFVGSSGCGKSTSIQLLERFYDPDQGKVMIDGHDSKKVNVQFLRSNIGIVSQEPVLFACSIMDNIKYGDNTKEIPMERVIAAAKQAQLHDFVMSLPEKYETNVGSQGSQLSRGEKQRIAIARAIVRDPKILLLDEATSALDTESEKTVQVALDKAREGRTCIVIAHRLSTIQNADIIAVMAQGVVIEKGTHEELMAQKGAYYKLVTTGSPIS
UniProt Q9NZZ3: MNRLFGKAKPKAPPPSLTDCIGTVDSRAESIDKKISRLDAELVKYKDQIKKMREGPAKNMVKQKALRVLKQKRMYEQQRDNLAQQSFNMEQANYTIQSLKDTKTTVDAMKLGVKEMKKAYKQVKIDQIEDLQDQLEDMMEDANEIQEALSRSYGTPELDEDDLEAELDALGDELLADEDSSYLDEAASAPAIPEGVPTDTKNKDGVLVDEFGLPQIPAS

Columns and labels:
FLAG-BSEP-R487H (human) = FLAG-BSEP-R487H (human) (UniProt O95342); assay: co-IP; Hep G2 cells co-expressing CHMP5-3HA and FLAG-BSEP wild type or mutants, fractionated; immunoprecipitation with anti-FLAG antibodies from the total membrane (tM) fraction; blots for CHMP5-3HA, LIP5 and VPS4
[1] = molecular target: FLAG-BSEP wild type (human) (UniProt O95342); assay: as above
FLAG-BSEP-N490D (human) = FLAG-BSEP-N490D (human) (UniProt O95342); assay: as above
[2] = molecular target: endogenous CHMP5 of human hepatoma cells (human (endogenous in Hep G2, Huh-7, Mahlavu)) (UniProt Q9NZZ3); assay: co-IP; endogenous proteins; immunoprecipitation of CHMP5 from total lysates of Hep G2, Huh-7 and Mahlavu cells, normal mouse IgG as control; blot for BSEP
EGFP-BSEP (human) = EGFP-BSEP (human) (UniProt O95342); assay: co-IP; Hep G2 cells co-expressing EGFP-BSEP and mCherry-CHMP5 or mCherry, fractionated; immunoprecipitation with anti-EGFP antibodies from the total membrane-protein (tM) fraction; blot for CHMP5

CHMP5-3HA (from UniProt Q9NZZ3-1 1-219)
binding (FLAG-BSEP-R487H (human)): binds
binding [1]: binds
binding (FLAG-BSEP-N490D (human)): binds

endogenous BSEP of human hepatoma cells (from UniProt O95342 1-1321)
binding [2]: binds

endogenous CHMP5 of human hepatoma cells (from UniProt Q9NZZ3 1-219)
binding (EGFP-BSEP (human)): binds

mCherry-CHMP5 (from UniProt Q9NZZ3-1 1-219)
binding (EGFP-BSEP (human)): binds
